At least one compound was matched to its structure with a doubt left.
Molecular target: T1, SNQ2 transporter (Saccharomyces cerevisiae, UniProt P32568)
T1 construct: expressed in transfected cells; host or cells: Yeast indicator strain
Test: Agar well diffusion method with PDR5 substituted with SNQ2
Format: cell-based, yeast

Amino acid sequences for entries named in this document (tags omitted). A change or cut given only in a name is not applied to a line headed by its entry.
UniProt P32568: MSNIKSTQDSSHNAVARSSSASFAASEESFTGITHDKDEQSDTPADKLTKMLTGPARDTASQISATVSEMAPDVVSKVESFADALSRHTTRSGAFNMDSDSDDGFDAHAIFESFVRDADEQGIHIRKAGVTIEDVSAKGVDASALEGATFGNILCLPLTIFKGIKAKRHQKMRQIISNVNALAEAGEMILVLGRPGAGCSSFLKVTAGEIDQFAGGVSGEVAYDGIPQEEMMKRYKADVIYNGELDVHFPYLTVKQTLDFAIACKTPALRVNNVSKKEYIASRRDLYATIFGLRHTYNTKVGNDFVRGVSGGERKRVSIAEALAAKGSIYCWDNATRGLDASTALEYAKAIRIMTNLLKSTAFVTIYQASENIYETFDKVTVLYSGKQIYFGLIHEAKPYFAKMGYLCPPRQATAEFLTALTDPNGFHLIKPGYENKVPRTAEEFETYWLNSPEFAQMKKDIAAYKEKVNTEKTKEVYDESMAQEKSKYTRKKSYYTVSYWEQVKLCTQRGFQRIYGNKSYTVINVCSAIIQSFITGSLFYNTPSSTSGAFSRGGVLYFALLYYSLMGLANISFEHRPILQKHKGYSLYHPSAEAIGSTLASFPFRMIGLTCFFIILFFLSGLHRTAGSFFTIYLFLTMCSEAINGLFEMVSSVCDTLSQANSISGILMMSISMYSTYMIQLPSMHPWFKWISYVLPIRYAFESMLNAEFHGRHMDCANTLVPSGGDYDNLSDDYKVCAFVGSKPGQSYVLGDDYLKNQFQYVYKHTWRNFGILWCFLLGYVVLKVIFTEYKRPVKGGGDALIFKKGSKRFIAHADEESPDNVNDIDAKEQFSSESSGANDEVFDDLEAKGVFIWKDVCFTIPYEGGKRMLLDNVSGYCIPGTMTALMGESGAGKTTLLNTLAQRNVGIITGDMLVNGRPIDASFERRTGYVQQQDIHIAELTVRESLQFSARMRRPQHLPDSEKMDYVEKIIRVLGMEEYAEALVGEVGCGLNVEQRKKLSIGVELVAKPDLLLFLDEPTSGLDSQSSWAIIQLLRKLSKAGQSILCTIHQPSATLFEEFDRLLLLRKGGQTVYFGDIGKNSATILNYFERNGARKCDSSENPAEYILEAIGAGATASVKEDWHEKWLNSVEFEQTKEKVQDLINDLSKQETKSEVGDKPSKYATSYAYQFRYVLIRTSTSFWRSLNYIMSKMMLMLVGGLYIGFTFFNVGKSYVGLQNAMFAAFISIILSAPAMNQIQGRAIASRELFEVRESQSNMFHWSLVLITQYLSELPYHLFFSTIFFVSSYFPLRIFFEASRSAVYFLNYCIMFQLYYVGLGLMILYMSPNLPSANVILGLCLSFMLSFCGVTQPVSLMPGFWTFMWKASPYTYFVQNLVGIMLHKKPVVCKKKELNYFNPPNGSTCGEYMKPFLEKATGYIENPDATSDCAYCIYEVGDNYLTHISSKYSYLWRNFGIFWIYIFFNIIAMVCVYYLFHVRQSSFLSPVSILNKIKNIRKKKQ

C=CC[C@@H]1/C=C(\C)C[C@H](C)C[C@H](OC)[C@H]2O[C@@](O)(C(=O)C(=O)N3CCCC[C@H]3C(=O)O[C@H](/C(C)=C/[C@@H]3CC[C@@H](O)[C@H](OC)C3)[C@H](C)[C@@H](O)CC1=O)[C@H](C)C[C@@H]2OC [FK 506]
SNQ2 transporter-inhibiting activity: no inhibiting activity to SNQ2 transporter

Source: US20040235723A1, “Method of screening abc protein promoter/inhibitor” (priority 2001, published 2004)
